We go through three molecules from paper PMC6626044, “Molecular basis of egg coat cross-linking sheds light on ZP1-associated female infertility” (Nature Communications, 2019).

Assay [1] has as its target T1, human ZP4 ZP-N1 domain, 6His-tagged (human) (UniProt Q12836).
T1 sequence: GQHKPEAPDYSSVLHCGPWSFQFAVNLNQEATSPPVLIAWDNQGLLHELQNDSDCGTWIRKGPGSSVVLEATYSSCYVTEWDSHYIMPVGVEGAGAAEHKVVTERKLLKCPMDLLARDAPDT
Nature of the assay: pull-down; conditioned medium of cells co-expressing the 6His- and Myc-tagged forms, Ni-NTA beads, 20 mM Na-HEPES pH 7.8, 100 mM NaCl, 10 mM imidazole, 1 h at RT; PNGase F, immunoblot with anti-5His and anti-Myc.

Assay [2] deals with T1, human ZP4 ZP-N1 domain, 6His-tagged (human). Nature of the assay: SEC; IMAC-purified protein, analytical SEC at 4 °C in 20 mM Na-HEPES pH 7.8, 150 mM NaCl (HiLoad 26/600 Superdex 75 pg or Superdex 75 Increase 10/300 GL), fractions on Coomassie-stained SDS-PAGE; both purified. (In gel filtration, larger molecules generally elute earlier.)
In assay [3] the target is human ZP1 trefoil domain and ZP module, hZP1_(A195-P590) (human) (UniProt P60852). Kind of assay: SEC-MALS; Superdex 75 Increase 10/300 GL, 10 mM Na-HEPES pH 7.8, 150 mM NaCl, 0.4 mL/min; calibrated with BSA; both purified.

These are yes or no findings as the source states them, for the method shown. For part of these data: In cells and extracts the contact can be indirect. For part of these data: Where a sequence is shown, tags or fusion partners need not be part of it.

B1: human ZP4 ZP-N1 domain, Myc-tagged (domain or fragment, UniProt Q12836 19-140)
chain: GQHKPEAPDYSSVLHCGPWSFQFAVNLNQEATSPPVLIAWDNQGLLHELQNDSDCGTWIRKGPGSSVVLEATYSSCYVTEWDSHYIMPVGVEGAGAAEHKVVTERKLLKCPMDLLARDAPDT
Consider B1, for which the binding result in assay [1] is recorded as “no binding”.

B2: human ZP4 ZP-N1 domain, 6His-tagged (domain or fragment, UniProt Q12836 19-140)
chain: GQHKPEAPDYSSVLHCGPWSFQFAVNLNQEATSPPVLIAWDNQGLLHELQNDSDCGTWIRKGPGSSVVLEATYSSCYVTEWDSHYIMPVGVEGAGAAEHKVVTERKLLKCPMDLLARDAPDT
Consider B2, for which the binding entry in assay [2] is recorded as “no binding”.

B3: human ZP1 trefoil domain and ZP module, hZP1_(A195-P590) (domain or fragment, UniProt P60852 195-590)
chain: ALPSPGPGPTLATLAQPHWGTLEHWDVNKRDYIGTHLSQEQCQVASGHLPCIVRRTSKEACQQAGCCYDNTREVPCYYGNTATVQCFRDGYFVLVVSQEMALTHRITLANIHLAYAPTSCSPTQHTEAFVVFYFPLTHCGTTMQVAGDQLIYENWLVSGIHIQKGPQGSITRDSTFQLHVRCVFNASDFLPIQASIFPPPSPAPMTQPGPLRLELRIAKDETFSSYYGEDDYPIVRLLREPVHVEVRLLQRTDPNLVLLLHQCWGAPSANPFQQPQWPILSDGCPFKGDSYRTQMVALDGATPFQSHYQRFTVATFALLDSGSQRALRGLVYLFCSTSACHTSGLETCSTACSTGTTRQRRSSGHRNDTARPQDIVSSPGPVGFEDSYGQEPTLGP
In the case of B3, the binding result in assay [3] is reported as “no binding”.
